Results deposited as PubChem BioAssay AID504808 (Drosophila RNAi Screening Center, 2011)
Assay: 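Chromatin factors that keep E2F targets switched off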 (primary screen). Cell system: Drosophila S2 cells. Reagents: long dsRNA against Drosophila genes. Measurement: 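Firefly luciferase driven by E2F sites, normalised to Renilla luciferase on the same minimal promoter, measured by plate reader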. Reading the numbers: E2F firefly: higher = more E2F reporter activity; Renilla normaliser: higher = more normaliser reporter signal. Rule for the call: 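a knock-down counted as active when the firefly/Renilla E2F signal rose above 50%, a threshold chosen arbitrarily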.
In all, the deposit lists about 21,000 reagents; below is an unselected part of those that have a named target and a result. In the full data, 18 (0.084%) are marked active. 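Raw counts without plate normalisation, one of two replicates; the ratio scores behind the calls were not deposited.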 Not given: the amount of reagent, the time to read-out.

With Gem2 (GeneID 40087) [DRSC09721], what was measured?
E2F firefly, rep 1: 73823; Renilla normaliser, rep 1: 3804; Call: inactive

What is on record for CG13288 (GeneID 38665) [DRSC09962]?
E2F firefly, rep 1: 92939; Renilla normaliser, rep 1: 3398; Call: inactive

Which result is listed for CG13339 (GeneID 36528) [DRSC06373]?
E2F firefly, rep 1: 91607; Renilla normaliser, rep 1: 4560; Call: inactive

Which result is listed for Hr96 (GeneID 42993) [DRSC16707]?
E2F firefly, rep 1: 81256; Renilla normaliser, rep 1: 3983; Call: inactive

What is on record for fz4 (GeneID 31659) [DRSC18780]?
E2F firefly, rep 1: 1.11e5; Renilla normaliser, rep 1: 5936; Call: inactive

2 entries from above, reformatted:
gene | dsRNA | E2F firefly, rep 1 | Renilla normaliser, rep 1 | Call
CG13288 (GeneID 38665) | DRSC09962 | 92939 | 3398 | inactive
CG13339 (GeneID 36528) | DRSC06373 | 91607 | 4560 | inactive

Continued.
For nbs (GeneID 44259) [DRSC11373], what was measured?
E2F firefly, rep 1: 1.27e5; Renilla normaliser, rep 1: 6709; Call: inactive

What did the screen give for PPP1R15 (GeneID 37820) [DRSC04422]?
E2F firefly, rep 1: 54675; Renilla normaliser, rep 1: 3378; Call: inactive

What did the screen give for CG14205 (GeneID 32952) [DRSC19560]?
E2F firefly, rep 1: 1.40e5; Renilla normaliser, rep 1: 6388; Call: inactive

With CG30471 (GeneID 246633) [DRSC07096], what does the deposit list?
E2F firefly, rep 1: 81804; Renilla normaliser, rep 1: 3204; Call: inactive

What is on record for Gr97a (GeneID 117338) [DRSC13802]?
E2F firefly, rep 1: 82730; Renilla normaliser, rep 1: 2332; Call: inactive

Which result is listed for hoka (GeneID 38588) [DRSC08313]?
E2F firefly, rep 1: 1.00e5; Renilla normaliser, rep 1: 4056; Call: inactive

With Obp99b (GeneID 43497) [DRSC16264], how do the results read?
E2F firefly, rep 1: 1.08e5; Renilla normaliser, rep 1: 6469; Call: inactive
